In patent publication US20050171008A1 (priority 2002, published 2005):

Experiment: general procedure: solution-phase peptide synthesis; DCCI/HOSu active ester; azide method; TPCK-trypsin enzymatic coupling

Substance	step yield (late stage modification step)	step yield (coupling step) [%]
Gly-Phe-Phe-Tyr-Lys(Boc)Obut	yield 93%	–
Z-Gly-Phe-Phe-Tyr-Lys (Boc) Obut	–	56
ZGly-Phe-Phe-Tyr-NHNH2	65%	–
ZGly-Phe-Phe-Tyr-OC2H5	–	87
